No constants are given. Whether binding was seen depends on the method and setting. In cells and extracts the contact can be indirect. Binding calls can cover weak binding; strength is not graded here. Tags and fused reporters may be left off the sequences shown.

For one assay, the target named is T1, GST–PIAS3 (UniProt O54714).
T1 sequence: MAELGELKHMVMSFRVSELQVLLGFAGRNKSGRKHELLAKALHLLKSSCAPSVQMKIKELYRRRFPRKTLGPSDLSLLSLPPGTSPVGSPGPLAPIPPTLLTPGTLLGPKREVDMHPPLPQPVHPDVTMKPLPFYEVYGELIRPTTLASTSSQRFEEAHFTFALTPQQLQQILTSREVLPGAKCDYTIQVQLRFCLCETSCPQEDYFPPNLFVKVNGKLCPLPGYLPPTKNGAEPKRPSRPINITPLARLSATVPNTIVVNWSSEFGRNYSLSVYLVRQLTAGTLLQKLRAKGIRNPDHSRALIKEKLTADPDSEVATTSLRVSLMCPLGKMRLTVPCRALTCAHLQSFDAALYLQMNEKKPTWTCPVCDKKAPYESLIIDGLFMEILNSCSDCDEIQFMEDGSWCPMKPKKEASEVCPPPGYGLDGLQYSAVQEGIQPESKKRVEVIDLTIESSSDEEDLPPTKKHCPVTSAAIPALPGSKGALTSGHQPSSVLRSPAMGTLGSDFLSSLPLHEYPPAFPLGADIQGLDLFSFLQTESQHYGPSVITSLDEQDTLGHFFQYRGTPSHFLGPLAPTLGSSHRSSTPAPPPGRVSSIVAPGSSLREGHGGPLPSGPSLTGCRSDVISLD
Put plainly: pull-down; reciprocal: GST–PIAS3 or GST–PIAS4 affinity purified on Glutathione-Sepharose (ELB buffer), western blot for endogenous AMPK subunits. On the technique in general: Immunoblotting shows a protein as a band on a membrane.

Assay [1] has as its target T2, GST–PIAS4 (affinity purification with endogenous AMPK subunits) (UniProt Q9JM05).
T2 sequence: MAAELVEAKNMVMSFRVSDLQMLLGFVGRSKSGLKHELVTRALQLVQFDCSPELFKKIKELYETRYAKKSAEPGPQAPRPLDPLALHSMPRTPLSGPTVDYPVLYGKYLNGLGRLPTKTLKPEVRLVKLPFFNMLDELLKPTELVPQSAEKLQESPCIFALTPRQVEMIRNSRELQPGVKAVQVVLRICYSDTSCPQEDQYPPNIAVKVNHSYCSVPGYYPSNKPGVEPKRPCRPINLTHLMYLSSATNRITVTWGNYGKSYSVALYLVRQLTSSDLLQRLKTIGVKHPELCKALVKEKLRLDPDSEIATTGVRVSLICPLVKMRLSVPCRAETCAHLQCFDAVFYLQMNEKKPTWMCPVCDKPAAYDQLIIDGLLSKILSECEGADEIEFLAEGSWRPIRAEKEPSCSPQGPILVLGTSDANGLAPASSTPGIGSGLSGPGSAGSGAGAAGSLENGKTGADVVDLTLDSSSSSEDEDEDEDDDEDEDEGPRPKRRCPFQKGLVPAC
The assay is described as above.

In the case of “endogenous AMPKγ subunit (human (endogenous in HEK293))”, the binding entry (in the assay with GST–PIAS3; in assay [1]) was “binds” each time.
